Results published in PMC4912613, “A broad analysis of resistance development in the malaria parasite” (Nature Communications, 2016).

Assays:
Assay type in all cases: cell-based, Plasmodium falciparum
3D7 = assay: Cross-resistance EC50 assay, 3D7 parent / sensitive strain; conditions: for 3D7-C9-WT (PARENT) Average Hill Slope: strain 3D7-C9-WT (parent of PfATP4 Mut3)
Procedure, shortened: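 P. falciparum asexual blood-stage proliferation, parent/sensitive strain of each resistant clone; 48-h assay with rings (0.5% parasitemia, 2.0% haematocrit) in RPMI-1640/5% AlbuMAX, ^3H-hypoxanthine added at 24 h, normalized to no-drug and 2 μM artesunate controls; alternatively 72-h SYBR Green assay (0.3% parasitemia, 4% haematocrit). EC50s from triplicate fits.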

Dd2 = assay: Cross-resistance EC50 assay, Dd2 parent; conditions: SYBR green 72 hour assay
[1] = tested on: GNF449-R2 (PfATP4 I203L and P990R, parent Dd2); assay: Cross-resistance EC50 assay, GNF449-R2; conditions: SYBR green 72 hour assay, asynchronized parasites, 96-well or 1536-well format
Procedure, shortened: (§1)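 Parasitized RBCs exposed to serial drug dilutions; growth read by ³H-hypoxanthine uptake over 48 h or SYBR Green I over 72 h at 37 °C. EC50s from triplicate runs; resistance judged as fold shift against the parent strain assayed the same way.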

PfCRT-Q352R (parent Dd2) = assay: Cross-resistance EC50 assay, PfCRT-Q352R; conditions: SYBR green 72 hour assay, synchronized parasites, 384-well format
Procedure, shortened: as §1

[2] = tested on: CYTbQi (cytb G33A, parent Dd2); assay: Cross-resistance EC50 assay, CYTbQi; conditions: SYBR green 72 hour assay, synchronized parasites, 384-well format
Procedure, shortened: as §1

[3] = SYBR green 72 hour assay, asynchronized parasites, 96-well or 1536-well format, 3D7 parent
[4] = hypoxanthine 48-hour assay, synchronized parasites, 96-well format, strain 3D7 (parent)
[5] = hypoxanthine 48-hour assay, synchronized parasites, 96-well format
[6] = asynchronized parasites, 96-well or 1536-well format, Dd2 parent
[7] = SYBR green 72 hour assay, synchronized parasites, 384-well format, strain 3D7 (parent)
[8] = synchronized parasites, 384-well format, strain Dd2 (parent)
[9] = strain PfCRT:Q352R (Dd2 parent)

| Structure (SMILES) | 3D7 (PARENT) Average Hill Slope (3D7; [3]) | 3D7 (PARENT) Average Hill Slope (3D7; SYBR green 72 hour assay, synchronized parasites, 384-well format, 3D7 parent) | 3D7 (PARENT) Average Hill Slope (3D7; [4]) | 3D7-C9-WT (PARENT) Average Hill Slope (3D7; [5]) | Dd2 (PARENT) Average Hill Slope (Dd2; [6]) | Dd2 (PARENT) Average Hill Slope (Dd2; synchronized parasites, 384-well format, Dd2 parent) | GNF449-R2 (Dd2 Parent) Average Hill Slope [1] | PfCRT:Q352R (Dd2 Parent) Average Hill Slope (PfCRT-Q352R (parent Dd2); PfCRT:Q352R strain) | CYTbQi (Dd2 Parent) Average Hill Slope ([2]; CYTbQi strain) | 3D7 (PARENT) Average Hill Slope (3D7; [7]) | Dd2 (PARENT) Average Hill Slope (Dd2; [8]) | PfCRT:Q352R (Dd2 Parent) Average Hill Slope (PfCRT-Q352R (parent Dd2); [9]) | CYTbQi (Dd2 Parent) Average Hill Slope ([2]; strain CYTbQi (Dd2 parent)) |
| --- | --- | --- | --- | --- | --- | --- | --- | --- | --- | --- | --- | --- | --- |
| CN(C)CCCNCc1ccc(-c2ccc(Cl)c(Cl)c2)o1 [MMV673964] | 2.61 | 12.7 | 3.08 | 3.49 | 1.50 | 4.54 | 1.36 | 6.53 | 4.47 |  |  |  |  |
| COc1cc(-c2nc(-c3ccccc3)c(-c3ccccc3)[nH]2)cc(OC)c1O [MMV020750] | 6.44 |  | 4.80 | 2.15 | 4.92 |  | 4.20 |  |  | 8.81 | 5.71 | 6.13 | 7.96 |
| CC(NCc1ccccc1)c1cc(Cl)ccc1O (stereo not shown) [MMV665789] | 1.27 |  | 2.18 | 1.96 | 0.79 |  | 0.98 |  |  | 2.67 | 1.61 | 1.45 | 2.69 |
| CCN(CC)S(=O)(=O)c1ccc(-c2csc(Nc3ccc(C)c(C)c3)n2)cc1 [MMV009108] | 0.94 |  | 2.49 | 2.37 | 1.54 |  | 1.49 |  |  | 3.08 | 2.28 | 2.10 | 3.07 |
| CN(C)Cc1ccc(-c2cc3c(-c4ccc(CN(C)C)cc4)ccnc3[nH]2)cc1.O=C(O)C(F)(F)F [MMV022224] | 2.13 |  | 3.78 | 2.41 | 1.80 |  | 1.32 |  |  | 9.78 | 3.88 | 9.31 | 6.06 |
| CCCOCc1cc(CN2CCN(c3cccc(Cl)c3)CC2)c(O)c2ncccc12 [MMV000787] | 1.26 |  | 21.8 | 2.26 | 2.23 |  | 1.74 |  |  | 4.40 | 3.72 | 3.31 | 5.93 |
| Cc1cc(Nc2ccc(OCc3ccccc3)cc2)nc2cc(O)ccc12 [MMV007181] | 3.25 |  | 3.69 | 2.41 | 2.93 |  | 2.14 |  |  | 4.51 | 1.92 | 1.87 | 2.82 |
| COc1cc(C(=O)ON=C(N)Cc2cccc3ccccc23)cc(OC)c1OC [MMV666687] | 4.91 |  | 1.44 | 1.47 | 2.51 |  | 3.04 |  |  | 1.54 | 13.9 | 20.5 | 7.59 |
| Cc1ccc(Cn2c(N3CCC(C(=O)NCc4cccs4)CC3)nc3ccccc32)cc1 [MMV007564] | 0.82 |  | 1.62 | 2.04 | 1.65 |  | 0.87 |  |  | 3.03 | 2.20 | 2.40 | 2.67 |
| COc1cc2cc(C(=O)Nc3ccccc3)c(N)nc2cc1OC [MMV006767] | 2.58 |  | 3.86 | 2.70 | 0.66 |  | 0.78 |  |  | 6.22 | 2.55 | 4.09 | 6.95 |
| CC(C)(C)OC(=O)N1CCN(c2ccccc2NC(=O)c2cccc(C(F)(F)F)c2Oc2ccc(F)cc2)CC1 [MMV030666] | 1.26 |  | 1.37 | 0.76 | 1.16 |  | 1.15 |  |  | 5.35 | 4.46 | 4.95 | 4.39 |
| Cc1ccc(S(=O)(=O)n2cc(-c3ccnc(N)c3)c3cc(Br)cnc32)cc1 [MMV024114] | 2.93 |  | 2.97 | 1.40 | 1.69 |  | 1.93 |  |  | 8.66 | 2.52 | 5.19 | 3.30 |
| COCCNCC(O)Cn1c2ccc(Cl)cc2c2cc(Cl)ccc21 (stereo not shown) [MMV019017] | 1.26 |  | 1.69 |  | 1.19 |  | 1.02 |  |  | 2.76 | 1.78 | 1.88 | 2.71 |
| COc1ccccc1CNC(=O)CCn1c(=O)[nH]c2ccsc2c1=O [MMV019066] | 0.93 |  | 0.69 | 0.53 | 0.57 |  | 0.60 |  |  | 1.46 | 1.26 | 1.30 | 1.43 |
| CN(C)CCCN(C)C(=O)C1Cc2cc(-c3ccccc3)ccc2N1S(=O)(=O)c1ccccc1 (stereo not shown) [MMV028895] | 0.92 |  | 2.01 | 1.26 | 3.99 |  | 1.82 |  |  | 4.18 | 4.68 | 7.12 | 1.96 |
| COc1cc(-c2nc(-c3ccccc3)c(-c3ccccc3)[nH]2)ccc1OCCN(C)C [MMV027496] | 4.01 |  | 4.96 | 6.24 | 1.05 |  | 1.42 |  |  | 8.81 | 27.6 | 16.9 | 25.7 |
| Nc1ccc(-c2nc3cc(Oc4ccc(Oc5ccc6[nH]c(-c7ccc(N)cc7)nc6c5)cc4)ccc3[nH]2)cc1 [MMV011895] | 1.84 |  | 2.55 |  | 2.51 |  | 1.84 |  |  | 3.81 | 2.72 | 2.19 | 5.12 |
